{"source": "patent US4587233A", "about": "(Board of Trustees of the Leland Stanford Junior University, priority 1983, dated 1986)", "test": "general procedure: Boc solid-phase peptide synthesis; Boc-Phe-resin; dicyclohexylcarbodiimide (DCC)", "conditions": "whole synthesis", "note": "HELM strings list residues between dots; [ac] is acetyl, [am] amide, other brackets name non-standard units.", "data": [{"substance": "PEPTIDE1{F.M.R.F}$$$$V2.0", "values": [{"measurement": "isolated mass", "value": 0.23, "unit": "g"}]}]}
